In PubChem BioAssay AID1671190 (National Center for Advancing Translational Sciences (NCATS), 2021):
“And” between values parts separate entries of the source, which are not always exact repeats. Equal values may be shown once. In all, about 580,000 compounds went through this assay and about 6,100 (1.1%) were called active. This list was built around the results that the source calls inconclusive (neither active nor inactive); the mix of calls is not that of the screen. The call rests on the fitted dose curve; in most records, active means well fitted inhibition curve with a large enough effect; inconclusive means small, poorly fitted or top-dose-only effect, or another doubt; inactive means no such curve, though single readings can be large or run the other way. A potency beside an inconclusive call is a rough fit, not a confirmed value.

Chains of the proteins cited; added tags and fusions are not shown. Lines headed by an entry give the natural chain unless they say otherwise; changes in a name come on top.
UniProt P18054: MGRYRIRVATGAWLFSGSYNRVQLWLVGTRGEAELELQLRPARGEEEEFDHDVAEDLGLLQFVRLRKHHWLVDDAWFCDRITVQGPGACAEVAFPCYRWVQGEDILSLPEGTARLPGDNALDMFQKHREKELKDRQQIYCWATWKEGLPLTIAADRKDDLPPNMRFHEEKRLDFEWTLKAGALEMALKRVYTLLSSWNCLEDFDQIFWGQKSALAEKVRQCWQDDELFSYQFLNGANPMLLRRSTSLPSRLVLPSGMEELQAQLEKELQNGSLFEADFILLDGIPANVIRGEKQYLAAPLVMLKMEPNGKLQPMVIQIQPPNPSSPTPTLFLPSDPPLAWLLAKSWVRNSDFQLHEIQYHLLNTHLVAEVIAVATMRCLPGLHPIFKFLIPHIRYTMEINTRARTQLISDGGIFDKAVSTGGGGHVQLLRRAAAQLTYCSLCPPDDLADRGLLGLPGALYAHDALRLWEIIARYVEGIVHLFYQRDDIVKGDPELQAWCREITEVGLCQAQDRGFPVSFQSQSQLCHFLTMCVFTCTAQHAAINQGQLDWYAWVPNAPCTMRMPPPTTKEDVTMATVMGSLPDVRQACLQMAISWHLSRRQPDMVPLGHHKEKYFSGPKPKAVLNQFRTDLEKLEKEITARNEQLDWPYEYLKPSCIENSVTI

Target: Polyunsaturated fatty acid lipoxygenase ALOX12 (Homo sapiens) (UniProt P18054)
Assay: Primary qHTS assay for inhibitors of human arachidonate 12S-lipoxygenase (ALOX12): Round 2
Conditions: purified 12hLO, xylenol orange hydroperoxide absorbance; activity change, negative = inhibition: at 108 µM (top of the series) unless noted
Summary of the method: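 Hydroperoxide product was detected by ferrous iron/xylenol orange as the 573 to 405 nm absorbance ratio. Arachidonic acid at 40 uM (final) was turned over for 30 min at room temperature by 150 nM human 12hLO, pH 7.0 Hepes buffer, after 15 min compound preincubation.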
On the % scale 0 is the no-effect control and ±100 the full control effect; potency means the concentration at half of the fitted maximal effect.

Structure (SMILES) | Potency | activity change, negative = inhibition
Fc1ccc(CNC[C@H]2Cn3c(-c4ccc(Cl)cc4)cnc3CO2)cc1 | inconclusive: 35.5 µM [inhibitor, partial curve] | –
c1cnn(-c2ccc(-c3nc(C4CCOC4)no3)cc2)c1 (stereo not drawn) | inactive | –
Cc1ccc(-c2nnn(CC(O)COc3cc(C)ccc3C)n2)cc1 (stereo not drawn) | inconclusive: 39.8 µM [inhibitor, partial curve, poor fit] | –
O=c1[nH]c(=O)c2[nH]c(=S)n(-c3ccccc3)c2[nH]1 | inconclusive: 12.6 µM [inhibitor, full curve, poor fit] | –
CCNc1ccc(S(=O)(=O)N(CC)CC)cc1NC(=O)c1ccccc1F | inactive | –
Nc1ccn(C2OC(CO)C(O)C2O)c(=O)n1 (stereo not drawn) | inactive | –
Cc1cc(C)c2oc(C(=O)Nc3cccc(Cl)c3)cc(=O)c2c1 | inactive | –
Cc1ccccc1-c1cncnc1NCc1cccnc1 | inconclusive: 39.8 µM [inhibitor, partial curve, poor fit] | –
Cc1ccc2c(=O)cc(C(=O)Nc3ccc(S(=O)(=O)Nc4onc(C)c4C)cc3)oc2c1 | inactive and inconclusive: 12.6 µM [inhibitor, full curve, poor fit] | –
Cc1noc(C)c1COC(=O)c1ccc(Cl)c(S(=O)(=O)N2CCCCCC2)c1 | inactive | –
COc1ccc(OC)c(C2C(C(=O)c3cc4ccccc4o3)=C(O)C(=O)N2c2cc(C)on2)c1 (stereo not drawn) | inconclusive: 5.01 µM [inhibitor, full curve, poor fit] | –
O=c1[nH]cccc1NS(=O)(=O)c1ccc(F)c(F)c1 | inconclusive: 7.94 µM [inhibitor, full curve] | –
O=C(NCCCN1CCOCC1)c1ccccc1 | inconclusive: 0.501 µM [inhibitor, full curve, poor fit] | –
O=C(NCc1ccc(Cl)cc1)c1ncoc1-c1cccs1 | inconclusive: 39.8 µM [inhibitor, partial curve, poor fit] | –
NCc1ccc(Oc2ccc(C(F)(F)F)cc2)cc1 | inactive | –
COc1cc(C2N(c3cc(C)on3)C(=O)C3CCCN32)cc(OC)c1OC (stereo not drawn) | inconclusive: 35.5 µM [inhibitor, partial curve, poor fit] | –
O=C(Nc1cccc2cccnc12)c1ccc(OC2CCCC2)cc1 | inactive | –
CC[C@H]1CN(C(=O)c2cccnc2)CC[C@H]1CC(=O)NCc1ccc(OC)c(OC)c1 | inactive | –
O=C1NC[C@H](Cc2ccccc2)N(CCc2cc(C(F)(F)F)cc(C(F)(F)F)c2)C1=O | inconclusive: 89.1 µM [inhibitor, single point] | –
Cc1cc2cc(CNC(=O)Nc3cccc(Cl)c3)ccc2n1C | inconclusive: 39.8 µM [inhibitor, partial curve, poor fit] | –
COc1cc(CN2CCCCCC2)c([N+](=O)[O-])cc1OC | inconclusive: 1.12 µM [inhibitor, full curve] | –
CCOc1c(/C=C/c2ccc3cccc(O)c3n2)cccc1OC | inactive | –
COc1ccc(N(C(=O)Cn2nnc3ccccc32)C(C(=O)NCc2ccco2)c2ccc(C)o2)cc1 (stereo not drawn) | inactive | –

Structure (SMILES) | Potency | activity change, negative = inhibition
O=C(Nn1cc(C(=O)Nc2ccccc2F)c2ccccc2c1=O)c1cnccn1 | inactive | –
Cc1cc2cc(NS(=O)(=O)c3ccc(F)c(F)c3)ccc2[nH]1 | inconclusive: 44.7 µM [inhibitor, single point] | –
CSc1ccc(S(=O)(=O)Nc2ccc(OCC(=O)N3CCOCC3)cc2)cc1 | inconclusive: 63.1 µM [inhibitor, partial curve, poor fit] | –
CNc1c(NC(=O)C2CC(=O)N(c3ccccc3)C2)c(=O)oc2ccccc12 (stereo not drawn) | inconclusive: 89.1 µM [inhibitor, partial curve, poor fit] | –
CC(NC(=S)NC1CCC(C(C)(C)C)CC1)c1ccccc1 (stereo not drawn) | inconclusive: 39.8 µM [inhibitor, partial curve, poor fit] | –
Cc1ccc(Cc2c(-c3ccc(Br)cc3)nc3ccc(Cl)cn23)cc1 | active: 35.5 µM | –
Cc1cc(C)n(-c2ncnc3sc(C)c(C)c23)n1 | inactive | –
Cc1ccc(SCc2nc(-c3ccc(C(=O)NCc4ccccc4Cl)cc3)oc2C)cc1 | inconclusive: 112 µM [inhibitor, partial curve, poor fit] | –
O=C(NC(=S)Nc1ccc(S(=O)(=O)Nc2nccs2)cc1)c1ccccc1F | inactive | –
CNC(=O)c1cccc(NC(=O)c2cc(-c3ccccc3)nc3c2cnn3C(C)C)c1 | inconclusive: 89.1 µM [inhibitor, single point] | –
CC1(C(=O)NS(=O)(=O)c2cccc(F)c2)CCN1C(=O)CCc1ccccc1 (stereo not drawn) | inconclusive: 44.7 µM [inhibitor, partial curve, poor fit] | –
CCC(CC)NC(=O)COc1ccc2ccc(=O)oc2c1 | inactive | –
COc1ccc(S(=O)(=O)N2CCN(c3ccccn3)CC2)c(OC)c1 | inactive | –
Cc1ccc(S(=O)(=O)n2c([N+](=O)[O-])cnc2C)c(C)c1C | inconclusive: 56.2 µM [inhibitor, partial curve, poor fit] | –
COc1cc(/C=C/C(=O)C2C(=O)C=C(C)OC2=O)cc(Cl)c1OC(F)F (stereo not drawn) | active: 14.1 µM | –
COc1cccc(-c2nnc3n(CCc4ccccc4)c(=O)c4ccccc4n23)c1O | inconclusive: 100 µM [inhibitor, partial curve, poor fit] | –
CC[n+]1cccc(-c2nc3ccccc3s2)c1 | inconclusive: 50.1 µM [inhibitor, partial curve, poor fit] | –
OCC1(Cc2ccccc2)CCN(C2CCN(c3ccc(F)c(F)c3)CC2)CC1 | active: 50.1 µM | –
COc1ccc(-c2csc(NC(=O)CCCc3nc4ccccc4c(=O)[nH]3)n2)cc1OC | inconclusive: 8.91 µM [inhibitor, partial curve, poor fit] | –
COCCN(CCOC)C(=O)C(C)[C@@H]1CC[C@@]2(C)CC[C@H](NC(C)=O)[C@@H](C)[C@@H]2[C@H]1O (stereo partly drawn) | inconclusive: 3.98 µM [inhibitor, full curve, poor fit] | –
CCOC(=O)C1=C(C)NC(=S)NC1/C=C/c1ccccc1 (stereo not drawn) | inconclusive: 50.1 µM [inhibitor, partial curve] | –
CC(c1ccc(O)cc1)(c1ccc(O)cc1)c1ccc(CCBr)cc1 | inconclusive: 50.1 µM [inhibitor, partial curve, poor fit] | –
CC1CCCN(CCNC2CCCC2)C1 (stereo not drawn) | inconclusive: 14.1 µM [inhibitor, full curve, poor fit] | –

Sorted by count of non-hydrogen atoms (low to high): four of the compounds above
Structure (SMILES) | Potency | activity change, negative = inhibition
Cc1cc(C)n(-c2ncnc3sc(C)c(C)c23)n1 | inactive | –
Cc1ccc(Cc2c(-c3ccc(Br)cc3)nc3ccc(Cl)cn23)cc1 | active: 35.5 µM | –
COCCN(CCOC)C(=O)C(C)[C@@H]1CC[C@@]2(C)CC[C@H](NC(C)=O)[C@@H](C)[C@@H]2[C@H]1O (stereo partly drawn) | inconclusive: 3.98 µM [inhibitor, full curve, poor fit] | –
COc1cccc(-c2nnc3n(CCc4ccccc4)c(=O)c4ccccc4n23)c1O | inconclusive: 100 µM [inhibitor, partial curve, poor fit] | –

Continuation:

Structure (SMILES) | Potency | activity change, negative = inhibition
Cc1cccc(NC(=O)C2(c3ccccc3)CCCC2)c1 | inactive | –
COc1ccc(CNc2oc(COc3cccc(C)c3)nc2C#N)cc1 | inconclusive: 141 µM [inhibitor, partial curve, poor fit] | –
O=C(c1cc(Cl)cc(Cl)c1)N1CCC(=O)N(C(COCc2ccccc2)Cc2ccccc2)CC1 (stereo not drawn) | inconclusive: 126 µM [inhibitor, single point] | –
O=C(COc1ccc2ccc(=O)oc2c1)N(Cc1cccs1)C1CC1 | inconclusive: 25.1 µM [inhibitor, partial curve, poor fit] | –
O=C(COC(=O)c1cc(=O)c2ccccc2o1)Nc1ccc(Cl)cc1 | inconclusive: 28.2 µM [inhibitor, partial curve, poor fit] | –
O=C(Nc1ccc(SC(F)F)cc1)c1ccc2c(=O)n3c(nc2c1)CCC3 | inactive | –
Cc1ccc(N2C(=O)CN=C2Nc2nc(C)cc(C)n2)cc1 | inconclusive: 8.91 µM [inhibitor, full curve, poor fit] | –
CCN(C(=O)c1c(OC)cccc1OC)c1nnc(-c2cccnc2)s1 | inactive | –
Cn1cc(S(=O)(=O)N2CCCC2)cc1C(=O)Nc1ccc(C(F)(F)F)cc1 | inactive | –
N#CCCn1c(=O)cnc2cnc(OCc3ccccc3)nc21 | inconclusive: 100 µM [inhibitor, partial curve, poor fit] | –
Cc1cc(C)n(C(C)CNS(=O)(=O)c2ccc(C)c(C)c2)n1 (stereo not drawn) | inconclusive: 100 µM [inhibitor, partial curve, poor fit] | –
C1CCNC(CN2CCCC2)CC1 (stereo not drawn) | inconclusive: 0.891 µM [inhibitor, full curve, poor fit] | –
CCCCc1cc(=O)oc2c(CN(CC)CC)c(O)c(Cl)cc12 | inconclusive: 89.1 µM [inhibitor, single point] | –
O=C(Nc1ccc(N2CCN(C(=O)c3cccs3)CC2)cc1)c1cccnc1 | inactive | –
CC(=O)N1CCN(C(=O)CSc2cc(C)c3cc(C)cc(C)c3n2)CC1 | inconclusive: 35.5 µM [inhibitor, partial curve, poor fit] | –
Cn1c(SCC(=O)NCc2ccc3c(c2)OCO3)nnc1-c1ccco1 | inactive | –
Nc1nc2ccc([N+](=O)[O-])c(N)c2s1 | inconclusive: 28.2 µM [inhibitor, partial curve, poor fit] | –
O=C(Nc1ccccc1)C1=C(c2ccccc2)S(=O)(=O)CCO1 | inconclusive: 0.631 µM [inhibitor, full curve] | –
N#Cc1ccccc1/C=N/Nc1nc(-c2ccccc2)c2cc(Cl)ccc2n1 | inconclusive: 39.8 µM [inhibitor, partial curve, poor fit] | –
COc1ccc(C(=O)NCCN2CCCC2)cc1OC | inconclusive: 4.47 µM [inhibitor, full curve, poor fit] | –
COc1cccc(N2CCN(C(=O)Cn3cnc4onc(-c5ccc(F)cc5)c4c3=O)CC2)c1 | – | inconclusive: -32.6% [inhibitor]
COC(=O)C1=C(C)N(Cc2ccccc2C(F)(F)F)C(=NCc2ccc(C(F)(F)F)cc2)NC1c1ccc(Cl)cc1 (stereo not drawn) | inconclusive: 70.8 µM [inhibitor, single point] | –
